Data as given in paper PMC9585516, “In Vitro Demonstration of Human Lipoyl Synthase Catalytic Activity in the Presence of NFU1” (ACS Bio & Med Chem Au, 2022).
No constants are given. Whether binding was seen depends on the method and setting.

Biological target: human NFU1, amino acids 59-254, holo form (human) (UniProt Q9UMS0)
Assay: SEC; HiPrep 16/60 Sephacryl HR S-200 in an anaerobic glovebox, 0.5 mL/min; 50 mM HEPES pH 7.5, 250 mM KCl, 10% glycerol, 2.5 mM TCEP, 10 mM BME; holo-LIAS alone (100 uM), holo-NFU1 alone (200 uM) and a 1:1 mixture; masses from a calibration curve; peak fractions checked by SDS-PAGE; both purified

binding: no binding (tested: 200 μM)
B1: human NFU1, amino acids 59-254, holo form (domain or fragment)
chain: GHMFIQTQDTPNPNSLKFIPGKPVLETRTMDFPTPAAAFRSPLARQLFRIEGVKSVFFGPDFITVTKENEELDWNLLKPDIYATIMDFFASGLPLVTEETPSGEAGSEEDDEVVAMIKELLDTRIRPTVQEDGGDVIYKGFEDGIVQLKLQGSCTSCPSSIITLKNGIQNMLQFYIPEVEGVEQVMDDESDEKEANSP
notes: Gly-His N-terminal appendage left after removal of the His6-SUMO tag; NFU1, human, Q9UMS0 (full length 1-254), N-terminally truncated variant, amino acids 59-254; Holo form with a [4Fe-4S] cluster; also called holo-NFU1; NFUI; source: E. coli BL21 (DE3) with pDB1282, purified under anoxic conditions (Ni-IMAC, SUMO tag removed with ULP1, SEC); not shown: His6, N-terminal, cleaved; SUMO, …
